Earlier results, collected in US8513182B2, “Natural polypeptides for oral health care” (priority 2007, dated 2013).
At least one structure is not confirmed: it was looked up by name or label, or the drawing left a doubt.

Experiments:
bacteria adhering to SHA = conditions: SHA treated with drug, washed, placed in a culture of bacteria; cited from earlier work
oral bacteria = conditions: bacteria grown in a broth media, in-vitro; cited from earlier work

SMILES: CN(C)[C@@H]1C(O)=C(C(N)=O)C(=O)[C@@]2(O)C(O)=C3C(=O)c4c(O)cccc4[C@@](C)(O)[C@H]3C[C@@H]12 [Tetracycline, tetracycline]
- adherence of bacteria to treated SHA (bacteria adhering to SHA): very few of these organisms were able to adhere to SHA
- concentration effective against oral bacteria (oral bacteria): 10 to 20 µg/mL
